Binding data for one substance are collected here from paper PMC13430412.

The chains behind the UniProt entries cited, without tags or fusion partners. Where a name states a change or a piece, a line headed by the entry shows the natural chain unless it says otherwise.
UniProt P51149: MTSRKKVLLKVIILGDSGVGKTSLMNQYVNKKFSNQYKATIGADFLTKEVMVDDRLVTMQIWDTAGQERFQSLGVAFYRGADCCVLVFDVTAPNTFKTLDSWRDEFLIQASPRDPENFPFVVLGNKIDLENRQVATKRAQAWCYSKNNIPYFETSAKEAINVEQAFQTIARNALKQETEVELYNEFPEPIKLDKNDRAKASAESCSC
UniProt Q709C8: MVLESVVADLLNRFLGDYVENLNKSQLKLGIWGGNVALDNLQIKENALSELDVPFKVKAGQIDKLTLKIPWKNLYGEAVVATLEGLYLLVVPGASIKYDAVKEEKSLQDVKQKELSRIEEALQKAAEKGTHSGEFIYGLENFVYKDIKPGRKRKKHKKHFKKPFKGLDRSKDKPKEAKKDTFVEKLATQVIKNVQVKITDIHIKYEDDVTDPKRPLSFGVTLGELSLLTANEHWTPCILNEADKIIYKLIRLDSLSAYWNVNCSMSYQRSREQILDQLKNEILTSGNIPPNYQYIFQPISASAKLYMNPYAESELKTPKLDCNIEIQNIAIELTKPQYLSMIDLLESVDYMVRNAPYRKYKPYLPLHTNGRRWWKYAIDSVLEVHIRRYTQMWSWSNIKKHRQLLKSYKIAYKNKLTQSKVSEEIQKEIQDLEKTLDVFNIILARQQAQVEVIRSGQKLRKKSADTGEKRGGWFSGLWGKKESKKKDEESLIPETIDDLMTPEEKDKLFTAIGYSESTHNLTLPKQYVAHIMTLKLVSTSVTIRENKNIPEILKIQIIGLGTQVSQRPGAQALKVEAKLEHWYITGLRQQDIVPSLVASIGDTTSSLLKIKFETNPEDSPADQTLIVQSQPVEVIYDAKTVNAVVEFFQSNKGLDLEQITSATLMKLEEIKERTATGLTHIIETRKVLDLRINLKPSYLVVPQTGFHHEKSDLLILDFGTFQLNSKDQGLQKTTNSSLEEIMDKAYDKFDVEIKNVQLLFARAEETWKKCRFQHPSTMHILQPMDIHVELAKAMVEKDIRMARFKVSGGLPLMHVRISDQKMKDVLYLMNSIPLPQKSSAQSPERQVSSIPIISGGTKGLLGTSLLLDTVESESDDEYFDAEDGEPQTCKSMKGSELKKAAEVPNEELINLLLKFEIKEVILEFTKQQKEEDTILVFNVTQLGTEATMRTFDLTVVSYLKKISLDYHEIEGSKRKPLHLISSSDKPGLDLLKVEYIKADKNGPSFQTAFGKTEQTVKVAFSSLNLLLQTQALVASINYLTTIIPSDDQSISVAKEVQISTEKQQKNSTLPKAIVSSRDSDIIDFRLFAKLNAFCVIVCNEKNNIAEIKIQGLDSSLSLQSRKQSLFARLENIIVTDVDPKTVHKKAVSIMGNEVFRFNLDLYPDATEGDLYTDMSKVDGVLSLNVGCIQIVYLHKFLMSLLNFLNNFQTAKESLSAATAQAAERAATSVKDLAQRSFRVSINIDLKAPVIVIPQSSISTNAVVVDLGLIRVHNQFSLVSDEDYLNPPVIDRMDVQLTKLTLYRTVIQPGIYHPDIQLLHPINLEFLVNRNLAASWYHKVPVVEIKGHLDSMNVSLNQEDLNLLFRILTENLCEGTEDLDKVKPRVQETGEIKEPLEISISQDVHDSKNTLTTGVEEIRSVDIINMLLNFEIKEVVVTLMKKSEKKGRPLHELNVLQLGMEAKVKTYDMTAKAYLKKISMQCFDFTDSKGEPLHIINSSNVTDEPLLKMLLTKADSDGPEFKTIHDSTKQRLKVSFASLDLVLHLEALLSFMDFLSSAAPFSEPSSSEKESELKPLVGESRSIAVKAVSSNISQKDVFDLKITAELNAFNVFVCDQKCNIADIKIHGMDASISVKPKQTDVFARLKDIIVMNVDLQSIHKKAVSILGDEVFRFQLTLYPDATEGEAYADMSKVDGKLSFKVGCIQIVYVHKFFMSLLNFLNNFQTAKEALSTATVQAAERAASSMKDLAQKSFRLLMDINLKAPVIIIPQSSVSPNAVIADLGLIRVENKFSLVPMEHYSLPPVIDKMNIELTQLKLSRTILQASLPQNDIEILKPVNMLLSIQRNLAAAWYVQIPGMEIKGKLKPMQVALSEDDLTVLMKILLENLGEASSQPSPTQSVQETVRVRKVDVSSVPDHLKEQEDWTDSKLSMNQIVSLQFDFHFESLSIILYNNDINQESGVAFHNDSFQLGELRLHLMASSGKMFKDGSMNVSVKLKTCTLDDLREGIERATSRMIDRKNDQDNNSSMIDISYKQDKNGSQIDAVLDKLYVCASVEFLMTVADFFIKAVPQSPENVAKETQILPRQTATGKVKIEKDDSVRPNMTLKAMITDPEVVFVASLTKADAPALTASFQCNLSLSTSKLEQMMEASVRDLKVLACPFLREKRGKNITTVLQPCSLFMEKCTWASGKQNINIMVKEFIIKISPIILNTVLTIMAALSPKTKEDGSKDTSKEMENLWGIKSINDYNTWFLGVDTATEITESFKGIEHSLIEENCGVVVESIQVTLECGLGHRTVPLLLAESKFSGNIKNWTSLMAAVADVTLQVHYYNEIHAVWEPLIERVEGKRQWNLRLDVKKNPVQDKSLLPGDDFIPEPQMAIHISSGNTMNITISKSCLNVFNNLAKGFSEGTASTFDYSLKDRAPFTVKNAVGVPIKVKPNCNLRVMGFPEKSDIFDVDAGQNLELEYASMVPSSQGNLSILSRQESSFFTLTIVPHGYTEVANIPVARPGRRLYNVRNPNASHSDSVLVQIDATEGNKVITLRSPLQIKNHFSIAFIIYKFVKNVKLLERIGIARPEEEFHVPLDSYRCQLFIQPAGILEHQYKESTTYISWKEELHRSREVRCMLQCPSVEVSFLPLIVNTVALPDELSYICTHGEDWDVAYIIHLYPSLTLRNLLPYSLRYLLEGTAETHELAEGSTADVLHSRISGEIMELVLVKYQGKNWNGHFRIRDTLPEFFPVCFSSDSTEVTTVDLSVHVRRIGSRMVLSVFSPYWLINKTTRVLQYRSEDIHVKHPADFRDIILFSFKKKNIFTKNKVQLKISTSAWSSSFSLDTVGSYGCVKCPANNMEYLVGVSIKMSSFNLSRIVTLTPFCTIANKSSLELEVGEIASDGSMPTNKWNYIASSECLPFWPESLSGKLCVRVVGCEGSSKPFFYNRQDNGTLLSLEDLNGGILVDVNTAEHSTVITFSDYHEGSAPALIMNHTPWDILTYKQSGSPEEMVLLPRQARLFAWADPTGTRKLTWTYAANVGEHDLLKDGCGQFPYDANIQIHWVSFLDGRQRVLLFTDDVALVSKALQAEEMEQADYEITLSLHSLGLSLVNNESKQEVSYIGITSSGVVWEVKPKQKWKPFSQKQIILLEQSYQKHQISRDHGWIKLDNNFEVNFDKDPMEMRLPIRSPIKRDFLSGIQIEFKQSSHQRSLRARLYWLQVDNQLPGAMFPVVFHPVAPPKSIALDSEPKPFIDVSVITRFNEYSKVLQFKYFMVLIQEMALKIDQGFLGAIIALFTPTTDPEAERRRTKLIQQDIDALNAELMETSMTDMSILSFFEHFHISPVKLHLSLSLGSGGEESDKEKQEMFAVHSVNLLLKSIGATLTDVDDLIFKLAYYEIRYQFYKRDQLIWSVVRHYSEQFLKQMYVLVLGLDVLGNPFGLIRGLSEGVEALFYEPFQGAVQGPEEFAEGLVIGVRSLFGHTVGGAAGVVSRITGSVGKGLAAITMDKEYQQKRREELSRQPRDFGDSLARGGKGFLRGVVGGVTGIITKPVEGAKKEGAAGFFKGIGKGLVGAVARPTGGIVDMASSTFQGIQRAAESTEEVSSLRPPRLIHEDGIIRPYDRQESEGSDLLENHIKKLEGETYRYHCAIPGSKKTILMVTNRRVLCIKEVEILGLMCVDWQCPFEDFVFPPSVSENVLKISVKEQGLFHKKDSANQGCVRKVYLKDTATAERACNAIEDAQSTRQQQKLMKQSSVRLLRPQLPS

Results are given in words; binding and its absence hold for the method and conditions named. For some assays here: Sequences can lack the tags named with a protein.

The target of one experiment is T1, 6xHis-ATG7 (UniProt O95352).
T1 sequence: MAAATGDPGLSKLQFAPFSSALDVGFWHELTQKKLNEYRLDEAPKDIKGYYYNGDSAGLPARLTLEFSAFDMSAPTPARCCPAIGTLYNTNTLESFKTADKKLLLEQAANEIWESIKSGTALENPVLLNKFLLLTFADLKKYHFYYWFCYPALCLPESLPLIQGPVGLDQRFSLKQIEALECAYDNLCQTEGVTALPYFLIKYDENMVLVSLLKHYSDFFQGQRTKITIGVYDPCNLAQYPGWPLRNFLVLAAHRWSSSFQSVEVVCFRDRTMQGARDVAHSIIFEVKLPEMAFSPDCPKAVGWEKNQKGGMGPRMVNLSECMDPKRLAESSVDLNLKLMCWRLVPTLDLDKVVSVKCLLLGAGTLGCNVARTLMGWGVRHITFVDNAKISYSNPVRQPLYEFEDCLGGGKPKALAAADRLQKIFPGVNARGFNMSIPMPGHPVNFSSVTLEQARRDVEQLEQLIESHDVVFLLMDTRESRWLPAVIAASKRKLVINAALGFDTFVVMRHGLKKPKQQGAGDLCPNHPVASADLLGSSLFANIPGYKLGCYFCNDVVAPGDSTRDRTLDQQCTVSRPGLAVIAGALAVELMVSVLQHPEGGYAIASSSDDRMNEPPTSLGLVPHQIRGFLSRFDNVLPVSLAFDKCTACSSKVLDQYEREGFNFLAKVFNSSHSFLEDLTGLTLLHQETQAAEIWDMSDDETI
The experiment is described as follows: liposome co-flotation; purified VPS13C constructs with SUVs (5% DGS-NTA) bearing His-tagged protein, 1 mM GTP, 2 mM Mg2+, room temperature 20 min; OptiPrep gradient, top fraction by SDS-PAGE; both purified.

Experiment [1] deals with Rab7A(T22N)-6xHis (human) (UniProt P51149). The experiment is described as above.

Turning to “VPS13C-ΔATG2C-3xFLAG (from UniProt Q709C8)”, the binding result (with 6xHis-ATG7; in experiment [1]) was “no binding” each time.
